According to paper PMC6920372:
Results are given in words; binding and its absence hold for the method and conditions named. Binding seen in cells or lysates may run through a third protein. Some results given as binding are weak or reduced against the parent protein; the word gives no strength. Where a sequence is shown, tags or fusion partners need not be part of it. Values belong to the molecule of their own block, whether it stands above or below them.

The chains behind the UniProt entries cited, without tags or fusion partners.
UniProt Q14457: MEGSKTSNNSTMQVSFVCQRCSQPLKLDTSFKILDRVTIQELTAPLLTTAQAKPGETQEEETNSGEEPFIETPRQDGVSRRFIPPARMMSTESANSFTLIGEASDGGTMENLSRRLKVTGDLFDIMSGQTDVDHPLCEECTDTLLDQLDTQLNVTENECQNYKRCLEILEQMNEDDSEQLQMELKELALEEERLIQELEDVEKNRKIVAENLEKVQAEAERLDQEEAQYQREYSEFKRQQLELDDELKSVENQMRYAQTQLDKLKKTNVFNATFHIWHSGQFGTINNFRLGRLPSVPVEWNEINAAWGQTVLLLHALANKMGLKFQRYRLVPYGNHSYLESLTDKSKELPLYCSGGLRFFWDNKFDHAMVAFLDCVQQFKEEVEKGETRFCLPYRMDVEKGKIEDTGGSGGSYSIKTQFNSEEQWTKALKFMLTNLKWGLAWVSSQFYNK
UniProt O60346: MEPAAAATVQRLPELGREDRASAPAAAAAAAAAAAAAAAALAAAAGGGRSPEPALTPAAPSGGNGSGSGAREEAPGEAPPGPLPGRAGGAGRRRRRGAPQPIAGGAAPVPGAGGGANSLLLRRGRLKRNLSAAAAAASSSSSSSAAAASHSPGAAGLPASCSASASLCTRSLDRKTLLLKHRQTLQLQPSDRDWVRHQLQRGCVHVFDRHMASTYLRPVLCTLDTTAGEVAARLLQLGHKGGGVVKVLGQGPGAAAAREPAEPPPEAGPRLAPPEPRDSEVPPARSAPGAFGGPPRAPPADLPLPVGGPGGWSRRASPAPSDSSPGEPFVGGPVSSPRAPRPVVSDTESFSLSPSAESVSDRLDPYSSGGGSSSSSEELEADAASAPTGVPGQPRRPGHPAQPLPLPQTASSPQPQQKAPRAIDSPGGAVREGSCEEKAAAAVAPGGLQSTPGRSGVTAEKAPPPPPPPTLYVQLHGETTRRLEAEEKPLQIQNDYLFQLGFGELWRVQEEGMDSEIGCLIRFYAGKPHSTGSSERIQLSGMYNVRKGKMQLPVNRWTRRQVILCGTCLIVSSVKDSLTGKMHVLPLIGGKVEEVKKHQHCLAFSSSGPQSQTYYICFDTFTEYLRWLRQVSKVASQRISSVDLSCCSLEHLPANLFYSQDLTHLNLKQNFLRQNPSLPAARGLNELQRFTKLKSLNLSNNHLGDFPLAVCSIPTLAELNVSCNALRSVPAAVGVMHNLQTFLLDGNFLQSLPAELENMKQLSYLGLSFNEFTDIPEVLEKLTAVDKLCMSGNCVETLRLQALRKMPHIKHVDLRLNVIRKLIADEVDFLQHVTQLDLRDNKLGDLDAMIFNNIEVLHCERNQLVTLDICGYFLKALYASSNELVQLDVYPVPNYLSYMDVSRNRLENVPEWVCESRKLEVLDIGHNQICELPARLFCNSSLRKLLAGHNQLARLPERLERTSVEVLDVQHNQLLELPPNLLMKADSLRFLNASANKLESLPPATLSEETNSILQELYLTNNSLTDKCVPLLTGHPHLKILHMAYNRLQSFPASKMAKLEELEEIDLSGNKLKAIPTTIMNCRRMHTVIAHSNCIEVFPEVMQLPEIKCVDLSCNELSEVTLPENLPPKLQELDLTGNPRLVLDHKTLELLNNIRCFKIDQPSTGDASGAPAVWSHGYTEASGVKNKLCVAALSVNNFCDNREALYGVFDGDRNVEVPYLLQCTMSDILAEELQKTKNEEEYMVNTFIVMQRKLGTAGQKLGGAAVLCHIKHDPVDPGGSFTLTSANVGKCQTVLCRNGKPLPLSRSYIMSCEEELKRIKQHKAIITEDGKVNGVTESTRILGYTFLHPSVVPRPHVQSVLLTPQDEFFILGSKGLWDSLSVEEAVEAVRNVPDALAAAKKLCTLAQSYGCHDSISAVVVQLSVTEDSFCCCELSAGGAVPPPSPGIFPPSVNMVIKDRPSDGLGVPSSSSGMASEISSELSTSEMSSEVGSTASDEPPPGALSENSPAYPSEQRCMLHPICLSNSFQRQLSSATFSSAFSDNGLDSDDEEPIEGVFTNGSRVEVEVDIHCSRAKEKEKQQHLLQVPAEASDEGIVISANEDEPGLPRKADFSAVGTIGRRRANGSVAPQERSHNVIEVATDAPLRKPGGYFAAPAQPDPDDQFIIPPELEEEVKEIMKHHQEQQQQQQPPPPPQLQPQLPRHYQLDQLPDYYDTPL
UniProt P31749: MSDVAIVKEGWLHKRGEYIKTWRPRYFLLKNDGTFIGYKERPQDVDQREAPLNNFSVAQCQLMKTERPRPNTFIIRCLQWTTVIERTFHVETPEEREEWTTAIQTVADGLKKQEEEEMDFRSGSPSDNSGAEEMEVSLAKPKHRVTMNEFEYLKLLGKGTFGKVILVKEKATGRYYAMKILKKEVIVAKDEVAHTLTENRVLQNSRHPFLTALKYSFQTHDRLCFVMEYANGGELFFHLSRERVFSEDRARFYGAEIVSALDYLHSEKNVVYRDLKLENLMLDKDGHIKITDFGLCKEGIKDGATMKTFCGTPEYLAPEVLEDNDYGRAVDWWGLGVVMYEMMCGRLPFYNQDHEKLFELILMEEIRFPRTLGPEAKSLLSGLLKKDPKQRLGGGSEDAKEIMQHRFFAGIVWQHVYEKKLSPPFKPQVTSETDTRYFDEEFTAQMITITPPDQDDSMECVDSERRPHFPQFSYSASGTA

Key:
Assay in all cases: co-IP
FKBP51-Flag = molecular target: T1, FKBP51-Flag (UniProt Q13451)
T1 sequence: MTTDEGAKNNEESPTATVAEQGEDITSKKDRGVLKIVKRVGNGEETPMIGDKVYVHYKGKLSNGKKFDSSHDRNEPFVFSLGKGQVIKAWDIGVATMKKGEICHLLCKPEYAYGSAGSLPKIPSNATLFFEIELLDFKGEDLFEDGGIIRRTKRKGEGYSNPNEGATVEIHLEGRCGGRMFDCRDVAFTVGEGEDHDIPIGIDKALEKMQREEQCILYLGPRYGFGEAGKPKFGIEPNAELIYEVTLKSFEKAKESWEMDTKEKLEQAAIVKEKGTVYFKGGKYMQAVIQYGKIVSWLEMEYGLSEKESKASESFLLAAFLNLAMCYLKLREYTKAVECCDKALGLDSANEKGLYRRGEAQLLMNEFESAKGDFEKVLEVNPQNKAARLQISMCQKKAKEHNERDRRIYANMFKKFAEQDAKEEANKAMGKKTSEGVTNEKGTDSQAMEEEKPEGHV

[1] = molecular target: T2, FK506 binding protein (FKBP)51 (human (endogenous in HEK293)) (UniProt Q13451)
T2 sequence: T1 sequence

[2] = molecular target: Beclin1 (BECN1) (human (endogenous in HEK293)) (UniProt Q14457)

- binding (FKBP51-Flag): binds
Molecule: PHLPP (from UniProt O60346 1-1717) (enzyme)

- binding (FKBP51-Flag): binds
Molecule: AKT1 (from UniProt P31749 1-480) (enzyme)

- binding [1]: binds
- binding [2]: no binding
B1: FLAG-HA-USP36 (protein, UniProt Q9P275 1-1123)
chain: MPIVDKLKEALKPGRKDSADDGELGKLLASSAKKVLLQKIEFEPASKSFSYQLEALKSKYVLLNPKTEGASRHKSGDDPPARRQGSEHTYESCGDGVPAPQKVLFPTERLSLRWERVFRVGAGLHNLGNTCFLNATIQCLTYTPPLANYLLSKEHARSCHQGSFCMLCVMQNHIVQAFANSGNAIKPVSFIRDLKKIARHFRFGNQEDAHEFLRYTIDAMQKACLNGCAKLDRQTQATTLVHQIFGGYLRSRVKCSVCKSVSDTYDPYLDVALEIRQAANIVRALELFVKADVLSGENAYMCAKCKKKVPASKRFTIHRTSNVLTLSLKRFANFSGGKITKDVGYPEFLNIRPYMSQNNGDPVMYGLYAVLVHSGYSCHAGHYYCYVKASNGQWYQMNDSLVHSSNVKVVLNQQAYVLFYLRIPGSKKSPEGLISRTGSSSLPGRPSVIPDHSKKNIGNGIISSPLTGKRQDSGTMKKPHTTEEIGVPISRNGSTLGLKSQNGCIPPKLPSGSPSPKLSQTPTHMPTILDDPGKKVKKPAPPQHFSPRTAQGLPGTSNSNSSRSGSQRQGSWDSRDVVLSTSPKLLATATANGHGLKGNDESAGLDRRGSSSSSPEHSASSDSTKAPQTPRSGAAHLCDSQETNCSTAGHSKTPPSGADSKTVKLKSPVLSNTTTEPASTMSPPPAKKLALSAKKASTLWRATGNDLRPPPPSPSSDLTHPMKTSHPVVASTWPVHRARAVSPAPQSSSRLQPPFSPHPTLLSSTPKPPGTSEPRSCSSISTALPQVNEDLVSLPHQLPEASEPPQSPSEKRKKTFVGEPQRLGSETRLPQHIREATAAPHGKRKRKKKKRPEDTAASALQEGQTQRQPGSPMYRREGQAQLPAVRRQEDGTQPQVNGQQVGCVTDGHHASSRKRRRKGAEGLGEEGGLHQDPLRHSCSPMGDGDPEAMEESPRKKKKKKRKQETQRAVEEDGHLKCPRSAKPQDAVVPESSSCAPSANGWCPGDRMGLSQAPPVSWNGERESDVVQELLKYSSDKAYGRKVLTWDGKMSAVSQDAIEDSRQARTETVVDDWDEEFDRGKEKKIKKFKREKRRNFNAFQKLQTRRNFWSVTHPAKAASLSYRR
